PubChem BioAssay AID2685 (National Center for Advancing Translational Sciences (NCATS), 2010)
The list shows a part of the results. The main result of the screen is listed elsewhere. These columns were measured beside it and carry no call. Most of these compounds were active or inconclusive in the main read-out, so they are no random draw. The note in brackets gives the kind of curve behind each potency; many fits are weak.

Assay: qHTS Assay for Lipid Storage Modulators in Drosophila S3 Cells;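 for cell number change: cells counted by Cell Tracker Red CMTPX staining in the red channel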
Conditions: BODIPY lipid droplet fluorescence, 18-24 h; for cell number change: measured here: cell count max response, cells fed with added oleic acid
Summary of the method: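 Laser-scanning cytometry quantifies lipid droplet accumulation (500–530 nm total intensity; droplet/cell object ratio) in oleic acid-fed (400 uM added) Drosophila S3 cells treated with a concentration series. 20 uM Triacsin C defined 100% inhibition.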

[1] = measured here: cell number channel AC50, cells fed with added oleic acid
[2] = measured here: lipid fluorescence (Fed channel) AC50, cells fed with added oleic acid

Compound | cell number change | AC50 [1] | AC50 [2]
O=C(Cc1ccccc1)N1CCN(S(=O)(=O)c2ccc([N+](=O)[O-])cc2)CC1 | 17.2% | – | –
Cn1cccc1C(=O)OCC(=O)NC1CCS(=O)(=O)C1 (centres undefined) | – | 0.13 µM [falling, full curve, poor fit] | 0.13 µM [falling, full curve, poor fit]
Cc1ccc(NC(=O)CSCC(=O)Nc2ccc(S(=O)(=O)N3CCOCC3)cc2)cc1 | – | 0.13 µM [rising, full curve, poor fit] | 11.6 µM [rising, partial curve]
COc1ccc2cc(C#N)c(N3CCOCC3)nc2c1 | -8.99% | – | –
C=CCn1c(SCc2nnc(-c3ccccc3)o2)nnc1C(O)c1ccccc1 (centres undefined) | – | – | 6.51 µM [rising, partial curve]
COc1cc(OC)cc(C(=O)NCC(=O)OCc2ccc(Cl)c(Cl)c2)c1 | -6.74% | – | –
CN(C)CCN(C(=O)c1ccc(S(=O)(=O)N(C)C)cc1)c1nc2cc3c(cc2s1)OCCO3 | 16% | 5.8 µM [falling, single point] | 6.51 µM [falling, single point]
Cc1ccc(C(=O)Nc2nnc(S(=O)(=O)Nc3ccccc3C)s2)cc1C | 21.9% | – | 0.731 µM [rising, single point]
O=C(NCCN1CCCC1)c1cc(-c2ccncc2)nc2ccc(S(=O)(=O)N3CCOCC3)cc12 | -1.56% | – | 6.51 µM [rising, full curve, poor fit]
COC(=O)C1=CN(C)C=C(C(=O)OC)C1c1ccc(Cl)cc1Cl | -104% | 2.59 µM [falling, full curve] | 9.2 µM [falling, partial curve]
CCOc1ccc(CN2C(=O)c3ccccc3Sc3ccc(C(=O)NCCCN4CCOCC4)cc32)cc1 | 43.4% | 0.164 µM [rising, full curve, poor fit] | –
Cn1c(=O)c2c(nc(Br)n2CCSc2ncccn2)n(C)c1=O | -15.1% | – | 0.731 µM [rising, single point]
C/C(=N\NC(=O)c1ccc([N+](=O)[O-])c(C)c1)c1ccccc1Cl | 16.3% | – | 10.3 µM [falling, partial curve, poor fit]
COCc1ccc(-c2ccc3c(c2)c(C#Cc2ccsc2)c(-c2cc(OC)cc(OC)c2)n3C)cc1 | -20.5% | – | 7.31 µM [rising, single point]
COc1ccccc1C(=O)NCc1ccc2c(c1)OCO2 | – | 0.411 µM [rising, full curve, poor fit] | 0.0731 µM [rising, partial curve, poor fit]
COc1cccc(/C=N/NC(=S)NCc2ccco2)c1OC | 14.3% | 0.461 µM [rising, full curve] | 0.517 µM [rising, full curve]
O=S(=O)(NCC1CCN(c2ccc(S(=O)(=O)N3CCOCC3)cc2)CC1)c1ccc(F)cc1 | -11.7% | – | 5.8 µM [falling, partial curve]
Cc1ccc(OCC(=O)N2CCC(Cc3ccccc3)CC2)c([N+](=O)[O-])n1 | -5.01% | – | 2.91 µM [rising, single point]

Record cards, as listed above:
O=S(=O)(NCC1CCN(c2ccc(S(=O)(=O)N3CCOCC3)cc2)CC1)c1ccc(F)cc1 is entered as cell number change: -11.7%; AC50 [2]: 5.8 µM [falling, partial curve]
Cn1c(=O)c2c(nc(Br)n2CCSc2ncccn2)n(C)c1=O is entered as cell number change: -15.1%; AC50 [2]: 0.731 µM [rising, single point]

Further results

Compound | cell number change | AC50 [1] | AC50 [2]
O=C(CSc1ccc2nnc(-c3cccnc3)n2n1)N1CCc2ccccc21 | – | 0.259 µM [rising, partial curve, poor fit] | –
COc1ccc(N2C(=O)C3C(c4ccc(C(=O)O)cc4)NC(Cc4ccccc4)(C(=O)O)C3C2=O)c([N+](=O)[O-])c1 (centres undefined) | 148% | 23.1 µM [rising, partial curve] | 29.1 µM [rising, single point]
Cc1ccc(-c2n[nH]c3c2CCC3)cc1 | -36.6% | 20.6 µM [falling, single point] | 18.4 µM [falling, single point]
CCCOc1ccc(C(=O)N2CCN(c3ccc(N)cc3Cl)CC2)cc1 | – | 1.3 µM [rising, partial curve] | 6.51 µM [rising, single point]
CC(C)Cn1c([N+](=O)[O-])nc2c1c(=O)[nH]c(=O)n2C | -50.4% | 25.9 µM [falling, partial curve, poor fit] | 9.2 µM [falling, partial curve]
Cn1c(NC(=O)c2cc(Cl)ccc2Cl)cc(=O)n(C)c1=O | 17% | 0.731 µM [rising, full curve, poor fit] | 14.6 µM [rising, partial curve]
CCN(Cc1ccccc1)S(=O)(=O)c1ccc(C(=O)N(CCCN(C)C)c2nc3cc4c(cc3s2)OCO4)cc1 | 7.17% | – | 23.1 µM [falling, single point]
CCN(CC)c1ccc(/C=N/NC(=O)c2cnccn2)c(O)c1 | 5.76% | 4.61 µM [falling, single point] | –
O=C1CN(C(=O)N[C@@H](Cc2ccccc2)C(=O)N[C@H](C(=O)O)c2ccccc2)c2ccccc2N1 | 3.82% | – | –
OC1CCN(Cc2cccc3ccccc23)CC1 | 0.903% | – | 1.16 µM [falling, full curve, poor fit]
CCc1ccc2c(c1)c1nc(C)sc1n2CC | – | – | 0.00461 µM [rising, full curve, poor fit]
CC1CC(C)CN(C(=O)CNC(=O)c2ccc3ccccc3c2)C1 (centres undefined) | 35.9% | 0.794 µM [rising, full curve, poor fit] | 8.91 µM [rising, partial curve]
CC(C)c1nc2oc3c(N4CCN(C)CC4)ncnc3c2c2c1CCC2 | 2.08% | – | 0.00411 µM [falling, full curve, poor fit]
C=CCN(CC=C)C(=O)Nc1cc(Cl)ccc1OC | -2.65% | – | 9.2 µM [rising, single point]
COc1ccc(C2NS(=O)(=O)OCC2C)cc1 (centres undefined) | 27.8% | – | –
Cc1cc(C(=O)CCl)c(C)n1CCc1ccc(Cl)cc1 | -38.8% | – | –
CN1CCN(C(=O)c2ccc3c(c2)N(Cc2ccc(F)cc2)C(=O)c2ccccc2S3=O)CC1 (centres undefined) | -2.59% | – | –
CCNC(=S)NNC(=O)c1cc(-c2cccc(OC)c2)nc2ccccc12 | – | 2.31 µM [rising, partial curve] | –
